# Reference: the supplement of paper PMC4683952
# Structures can show the parent of a compound that is named as a salt. In all, about 1,200 compounds went through this assay and about 50 (4%) showed activity. No stated cut-off is given here; in the data, all actives reach 1.3 or more but so do some inactives. The list shows a part of the results.
# System: Lgr5 (MarsCy1-Lgr5-EGFP, U2OS)
# Experiment: cell-surface Lgr5 expression (SCi1 fluorescence, background-subtracted) relative to WT DMSO (fold of DMSO control); higher = more Lgr5 at the plasma membrane, active = hit call of the paper
# Conditions: U2OS MarsCy1-Lgr5-EGFP stable; treatment time: overnight; 16 µM; library: Johns Hopkins Clinical Compound Library
row,SMILES,cell-surface Lgr5 expression
1,CCC(=O)O[C@@H]1CC(=O)O[C@H](C)C/C=C/C=C/[C@H](O)[C@H](C)C[C@H](CC=O)[C@H](O[C@@H]2O[C@H](C)[C@@H](O[C@H]3C[C@@](C)(O)[C@@H](OC(=O)CC)[C@H](C)O3)[C@H](N(C)C)[C@H]2O)[C@H]1OC [Midecamycin],inactive: 0.891
2,CCN(CC)CC(=O)Nc1c(C)cccc1C [Lidocaine],inactive: 1.19
3,CC(=O)OCC(=O)[C@@]12OC(C)(C)O[C@@H]1C[C@H]1[C@@H]3C[C@H](F)C4=CC(=O)C=C[C@]4(C)[C@@]3(F)[C@@H](O)C[C@@]12C [Fluocinolone acetonide 21-acetate],active: 1.6
4,OCc1ccccc1O[C@@H]1O[C@H](CO)[C@@H](O)[C@H](O)[C@H]1O [Salicin],inactive: 1.17
5,C=CC1=C(C(=O)O)N2C(=O)[C@@H](NC(=O)/C(=N\O)c3csc(N)n3)[C@H]2SC1 [Cefdinir],inactive: 1.06
6,CN1C(CCl)Nc2cc(Cl)c(S(N)(=O)=O)cc2S1(=O)=O (configuration not stated) [Methyclothiazide],inactive: 0.905
7,CC[C@H](C)[C@@H]1NC(=O)[C@H](Cc2ccc(O)cc2)NC(=O)[C@@H](N)CSSC[C@@H](C(=O)N2CCC[C@H]2C(=O)N[C@@H](CC(C)C)C(=O)NCC(N)=O)NC(=O)[C@H](CC(N)=O)NC(=O)[C@H](CCC(N)=O)NC1=O [Oxytocin],inactive: 1.06
8,"Cc1cn([C@H]2C=C[C@@H](CO)O2)c(=O)[nH]c1=O [Stavudine (2',3'-Didehydro-3'-Deoxythymidine)]",inactive: 0.981
9,OO.[Zn] [Zinc peroxide],inactive: 0.874
10,COc1cccc2c1C(=O)c1c(O)c3c(c(O)c1C2=O)C[C@@](O)(C(C)=O)C[C@@H]3O[C@H]1C[C@H](N)[C@H](O)[C@H](C)O1 [Daunorubicin],inactive: 0.502
11,CC(O)Cn1cnc2c1c(=O)n(C)c(=O)n2C (stereo not drawn) [Proxyphylline (17-beta-hydroxypropyltheophylline)],inactive: 0.877
12,CCC1(C)OC(=O)N(C)C1=O (configuration not stated) [Paramethadione],inactive: 0.585
13,O=C(OOC(=O)c1ccccc1)c1ccccc1 [Benzoyl peroxide],inactive: 0.867
14,NS(=O)(=O)c1cc2c(cc1C(F)(F)F)NCNS2(=O)=O [Hydroflumethiazide],inactive: 1.01
15,CN1[C@@H]2CC[C@H]1CC(OC(=O)C(O)c1ccccc1)C2 (mixture of isomers) [DL-homatropine],inactive: 0.683
16,[S-2].[Zn+2] [Zinc sulfide],inactive: 0.879
17,CN1C(=O)CC[C@H]1c1cccnc1 [Cotinine],inactive: 0.893
18,CC[C@@H]1C(=O)OC[C@@H]1Cc1cncn1C [Pilocarpine hydrochloride],inactive: 0.698
19,CCN1C(=CC=Cc2ccc3ccccc3[n+]2CC)C=Cc2ccccc21 [Quinaldine blue (Pinacyanol chloride)],inactive: 1.53
20,"CC(C)(C)CC(C)(C)c1cc(Cc2cc(C(C)(C)CC(C)(C)C)cc(-n3nc4ccccc4n3)c2O)c(O)c(-n2nc3ccccc3n2)c1 [Bisoctrizole (2,2'-Methylenebis)]",inactive: 1
21,O=C(CCNNC(=O)c1ccncc1)NCc1ccccc1 [Nialamide],inactive: 0.469

row,SMILES,cell-surface Lgr5 expression
1,COc1cccc2c1C(=O)c1c(O)c3c(c(O)c1C2=O)C[C@@](O)(C(=O)CO)C[C@@H]3O[C@H]1C[C@H](N)[C@@H](O)[C@H](C)O1 [Epirubicin],inactive: 1.31
2,C/C=C/c1ccc(OC)cc1 [trans-Anethole],inactive: 0.977
3,O[C@H]1[C@H](O)[C@@H](O)[C@H](O)[C@@H](O)[C@H]1O [myo-Inositol],inactive: 0.994
4,O[C@H]1[C@H](O)[C@@H](O)[C@H](O)[C@@H](O)[C@H]1O [Inositol],inactive: 0.825
5,O=C([O-])[O-].[Zn+2] [Zinc carbonate],inactive: 1.19
6,CCCCCCCCOc1ccc(C(=O)c2ccccc2)c(O)c1,inactive: 1.12
7,Cc1ccc2ccccc2n1 [Quinaldine],inactive: 1.33
8,CC1=C(/C=C/C(C)=C/C=C/C(C)=C\CO)C(C)(C)CCC1 [Neovitamin A (13-cis-retinal)],inactive: 1.05
9,Cc1ncc([N+](=O)[O-])n1CC(C)O (configuration not stated) [Secnidazole],inactive: 1.07
10,O=C(O)c1ccccc1OP(=O)(O)O [Fosfosal (O-Carboxyphenyl phosphate)],inactive: 1.13
11,COc1ccc2cc([C@H](C)C(=O)O)ccc2c1 [Naproxen sodium],inactive: 1.03
12,COc1ccc2cc([C@H](C)C(=O)O)ccc2c1 [Naproxen (s-6-methoxy methyl 2-naphthalene acetic acid)],inactive: 0.783
13,O=C([O-])c1ccccc1.[Li+] [Lithium benzoate],inactive: 0.549
14,CC1(C)S[C@@H]2[C@H](NC(=O)[C@H](N)c3ccccc3)C(=O)N2[C@H]1C(=O)O [Ampicillin Sodium Salt],inactive: 0.927
15,CC1(C)S[C@@H]2[C@H](NC(=O)[C@H](N)c3ccccc3)C(=O)N2[C@H]1C(=O)O [Ampicillin],inactive: 0.908
16,C=C[C@H]1CN2CC[C@H]1C[C@H]2[C@H](O)c1ccnc2ccc(OC)cc12 [Quinine],inactive: 1.48
17,C=C[C@H]1CN2CC[C@H]1C[C@H]2[C@H](O)c1ccnc2ccc(OC)cc12 [Quinine hydrobromide],inactive: 1.42
18,C=C[C@H]1CN2CC[C@H]1C[C@H]2[C@H](O)c1ccnc2ccc(OC)cc12 [Quinine bisulfate],inactive: 1.26
19,O=C(O)c1cc(=O)[nH]c(=O)[nH]1 [Orotic acid],inactive: 1.02
20,CCC(NC(C)C)C(O)c1ccc(O)c2[nH]c(=O)ccc12 (configuration not stated) [Procaterol],inactive: 1.25
21,C[C@]12CCC(=O)C=C1CC[C@@H]1[C@@H]2[C@@H](O)C[C@]2(C=O)[C@@H](C(=O)CO)CC[C@@H]12 [Aldosterone],active: 1.55
